In data set [1] the target is T1, DDX21 core D339H/E340G (DEV mutant) (human) (UniProt Q9NR30).
T1 sequence (looked up): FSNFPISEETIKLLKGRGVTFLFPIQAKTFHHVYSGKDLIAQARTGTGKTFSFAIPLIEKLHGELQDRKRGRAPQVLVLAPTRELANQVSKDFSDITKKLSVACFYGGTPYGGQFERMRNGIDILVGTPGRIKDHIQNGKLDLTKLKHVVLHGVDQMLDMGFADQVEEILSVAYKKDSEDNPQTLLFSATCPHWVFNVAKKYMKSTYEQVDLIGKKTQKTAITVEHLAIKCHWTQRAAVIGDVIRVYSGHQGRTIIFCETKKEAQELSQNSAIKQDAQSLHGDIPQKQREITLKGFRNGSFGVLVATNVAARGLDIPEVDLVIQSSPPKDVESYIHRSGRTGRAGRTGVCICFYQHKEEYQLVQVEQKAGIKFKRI
Put plainly: MST. The note with it: 2 mM AMPPNP, 2 mM MgCl2, stronger than WT, value only in figure, MST: 50 mM Tris pH 7.5, 50 mM KCl, 2 mM MgCl2, 1 mM TCEP, 0.01% NP-40, 0.05 mg/mL BSA, 50 nM FAM-RNA, temperature not given, recombinant protein, residues 188-563, protein details: N-terminal His-SUMO, removed by ULP1, label: FAM.

For a further data set, the target named is T2, DDX21 core D321A (human) (UniProt Q9NR30).
T2 sequence (looked up): T1 sequence (looked up) with D134A, H152D, G153E
Put plainly: UV crosslinking. The note with it: increased RNA binding; recombinant protein; residues 188-563; protein details: N-terminal His-SUMO, removed by ULP1; label: FAM.

One sequence from paper PMC7375243, “Structural Basis of Human Helicase DDX21 in RNA Binding, Unwinding, and Antiviral Signal Activation” (Advanced Science, 2020) can be followed below.

Changes are numbered by the printed parent chain. For at least one entry, the source does not settle the construct or the ends of the probe. At least one verdict rests on a figure or table, not on a statement of the authors. Where a protein sequence is shown, tags need not be part of it.

UUUUUUUUUUUUUUU [FAM-U15]: the binding result (in data set [1]; in the data set with DDX21 core D321A (human)) was “binds” in each case.
